No constants are given. Whether binding was seen depends on the method and setting. Some binding calls cover weakened binding; strength is not graded here.
What was measured:
[1] = biological target: human PRLR (Biacore antigen) (human) (UniProt P16471); assay: SPR (Biacore); huPRLR binding kinetics, ka against kd plot
[2] = biological target: cyno PRLR (Biacore antigen) (cyno); assay: SPR (Biacore T200), mAb captured by anti-Fc, PRLR injected; ka against kd plot
[3] = biological target: human PRLR (Biacore antigen) (human) (UniProt P16471); assay: as above
[4] = biological target: human PRLR (Biacore antigen) (human) (UniProt P16471); assay: SPR Biacore
[5] = biological target: murine PRLR (Biacore antigen) (murine) (UniProt Q08501); assay: SPR (Biacore T200), mAb captured by anti-Fc, PRLR injected; ka against kd plot

Amino acid sequences for entries named in this document (tags omitted). A change or cut given only in a name is not applied to a line headed by its entry. Residues count along the entry.
UniProt P16471: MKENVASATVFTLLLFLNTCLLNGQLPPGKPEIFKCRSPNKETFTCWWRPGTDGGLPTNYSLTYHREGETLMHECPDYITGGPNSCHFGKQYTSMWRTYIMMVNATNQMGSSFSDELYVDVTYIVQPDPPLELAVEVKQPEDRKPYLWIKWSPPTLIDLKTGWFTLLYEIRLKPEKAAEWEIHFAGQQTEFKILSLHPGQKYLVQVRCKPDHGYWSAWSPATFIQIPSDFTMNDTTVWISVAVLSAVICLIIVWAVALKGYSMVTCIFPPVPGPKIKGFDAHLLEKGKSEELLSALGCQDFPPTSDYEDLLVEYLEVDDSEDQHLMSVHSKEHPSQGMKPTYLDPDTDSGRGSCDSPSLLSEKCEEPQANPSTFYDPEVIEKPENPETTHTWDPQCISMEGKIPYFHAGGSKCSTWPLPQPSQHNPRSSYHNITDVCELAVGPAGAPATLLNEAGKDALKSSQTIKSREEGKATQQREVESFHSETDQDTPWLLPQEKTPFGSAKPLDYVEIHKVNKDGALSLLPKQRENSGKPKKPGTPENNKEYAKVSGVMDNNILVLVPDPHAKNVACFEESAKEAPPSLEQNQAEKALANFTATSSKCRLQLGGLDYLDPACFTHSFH
UniProt Q08501, residues 20-229: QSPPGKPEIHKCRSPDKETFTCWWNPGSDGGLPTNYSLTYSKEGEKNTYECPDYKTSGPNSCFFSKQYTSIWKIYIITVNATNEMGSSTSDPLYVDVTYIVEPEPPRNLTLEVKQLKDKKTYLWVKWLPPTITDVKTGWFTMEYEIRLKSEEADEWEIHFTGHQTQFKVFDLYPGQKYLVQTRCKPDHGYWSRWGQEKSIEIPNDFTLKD

Measured: binding

B1: Ab39 (antibody, human IgG1, kappa, V domains shown)
VH: EVQLVQSGAEVKKPGSSVKVSCKASGYTFTSYWIHWVRQAPGQGLEWIGEIDPSDSYTNYNQKFKGRATLTVDKSSSTAYMELSSLRSEDTAVYYCARSFFTNWFAYWGQGTLVTVSS
VL: DVVMTQTPLSLSVTPGQPASISCRSSQSLVHSNGNTYLHWYLQKPGQSPQLLIYKVSNRFSGVPDRFSGSGSGTDFTLKISRVEAEDVGVYFCSQSTHVPFTFGGGTKVEIKR
binds: [1] | [2] | [3]

B2: Ab36 (antibody, human IgG1, kappa, V domains shown)
VH: EVQLVQSGAEVKKPGSSVKVSCKASGYTFTSYWIHWVRQAPGQGLEWMGEIDPSDSYTNYNQKFKGRVTITADKSTSTAYMELSSLRSEDTAVYYCARSFFTNWFAYWGQGTLVTVSS
VL: DVVMTQTPLSLSVTPGQPASISCRSSQSLVHSNGNTYLHWYLQKPGQSPQLLIYKVSNRFSGVPDRFSGSGSGTDFTLKISRVEAEDVGVYFCSQSTHVPFTFGGGTKVEIKR
binds: [1] | [2] | [3]

B3: Ab53 (antibody, human IgG1, kappa, V domains shown)
VH: EVQLVQSGAEVKKPGSSVKVSCKASGYTFTSYWIHWVRQAPGQGLEWIGEIDPSDSYTNYNQKFKGRVTITVDKSTSTAYMELSSLRSEDTAVYYCARSFFTNWFAYWGQGTLVTVSS
VL: DVVMTQTPLSLSVTPGQPASISCRSSQSLVHSNGNTYLHWYLQKPGQSPQLLIYKVSNRFSGVPDRFSGSGSGTDFTLKISRVEAEDVGVYFCSQSTHVPFTFGGGTKVEIKR
binds: [4] | [1] | [2] | [3]

B4: Ab54 (antibody, human IgG1, kappa, V domains shown)
VH: EVQLVQSGAEVKKPGSSVKVSCKASGYTFTSYWIHWVRQAPGQGLEWIGEIDPSDSYTNYNQKFKGRATLTVDKSSSTAYMELSSLRSEDTAVYYCGRSFFTNWFAYWGQGTLVTVSS
VL: DVVMTQTPLSLSVTPGQPASISCRSSQSLVHSNGNTYLHWYLQKPGQSPQLLIYKVSNRFSGVPDRFSGSGSGTDFTLKISRVEAEDVGVYFCSQSTHVPFTFGGGTKVEIKR
binds: [1] | [2] | [3] | [5]

B5: Ab55 (antibody, human IgG1, kappa, V domains shown)
VH: EVQLVQSGAEVKKPGSSVKVSCKASGYTFTSYWIHWVRQAPGQGLEWIGEIDPSDSYTNYNQKFKGRATLTVDRSSSTAYMELSSLRSEDTAVYYCGRSFFTNWFAYWGQGTLVTVSS
VL: DVVMTQTPLSLSVTPGQPASISCRSSQSLVHSNGNTYLHWYLQKPGQSPQLLIYKVSNRFSGVPDRFSGSGSGTDFTLKISRVEAEDVGVYFCSQSTHVPFTFGGGTKVEIKR
binds: [1] | [2] | [3] | [5]

B6: Ab30 (antibody, human IgG1, kappa, V domains shown)
VH: EVQLVQSGAEVKKPGSSVKVSCKASGYTFTSFWMHWVRQAPGQGLEWIGVIDPSDTYTNYNQKFKGRATLTVDESSSTAYMELSSLRSEDTAVYYCARGDYSNWFTYWGQGTLVTVSS
VL: DVVMTQTPLSLSVTPGQPASISCRSSQRLVHSNGNTYLHWYLQKPGQSPQLLIYKVSNRFSGVPDRFSGSGSGTDFTLKISRVEAEDVGVYFCSQSTHVPWTFGGGTKVEIKR
binds: [1]

Reference: patent US20170022281A1
